Laboratory results reported in paper PMC9715706.
Results are given in words; binding and its absence hold for the method and conditions named. In cells and extracts the contact can be indirect. Sequences can lack the tags named with a protein.

By UniProt entry, the sequences of proteins in these tests, tags left out. Where a name states a change or a piece, a line headed by the entry shows the natural chain unless it says otherwise.
UniProt P48546: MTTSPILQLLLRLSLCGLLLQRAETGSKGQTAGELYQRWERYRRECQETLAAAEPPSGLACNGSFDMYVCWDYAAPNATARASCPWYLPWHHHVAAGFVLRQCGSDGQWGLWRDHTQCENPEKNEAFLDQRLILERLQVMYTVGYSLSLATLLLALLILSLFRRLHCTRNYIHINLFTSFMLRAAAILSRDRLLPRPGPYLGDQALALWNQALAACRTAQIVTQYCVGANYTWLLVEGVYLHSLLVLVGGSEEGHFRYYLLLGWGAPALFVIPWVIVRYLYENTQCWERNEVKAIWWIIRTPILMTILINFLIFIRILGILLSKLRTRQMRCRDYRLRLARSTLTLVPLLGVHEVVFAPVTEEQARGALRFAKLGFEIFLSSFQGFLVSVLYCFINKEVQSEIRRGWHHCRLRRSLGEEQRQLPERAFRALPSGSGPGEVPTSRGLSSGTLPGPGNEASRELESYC
UniProt P43220: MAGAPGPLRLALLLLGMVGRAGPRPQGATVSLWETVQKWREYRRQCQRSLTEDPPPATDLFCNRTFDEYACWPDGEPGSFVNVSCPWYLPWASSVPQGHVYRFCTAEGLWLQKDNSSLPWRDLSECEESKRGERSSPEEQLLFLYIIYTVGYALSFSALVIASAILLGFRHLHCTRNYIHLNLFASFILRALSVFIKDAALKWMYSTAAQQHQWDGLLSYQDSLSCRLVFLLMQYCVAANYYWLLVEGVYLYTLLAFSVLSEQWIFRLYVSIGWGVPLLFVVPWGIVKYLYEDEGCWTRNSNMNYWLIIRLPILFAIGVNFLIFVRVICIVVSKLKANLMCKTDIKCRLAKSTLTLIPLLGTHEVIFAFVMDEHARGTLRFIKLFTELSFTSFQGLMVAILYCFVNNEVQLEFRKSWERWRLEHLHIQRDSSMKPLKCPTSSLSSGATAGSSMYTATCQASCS

What was measured:
[1] = molecular target: adeno-A2A receptor fused to a nanoluciferase (human) (UniProt P29274); assay: FRET or BRET; saturation BRET; constant 20 nM BR1-NLuc or Adora-NLuc plasmid coexpressed with 0-50 nM BR2-mCitrine plasmid in Sf21 cell-free lysate; Nano-Glo substrate added to 5 µL vesicular fraction; n = 3
[2] = molecular target: gastric inhibitory polypeptide receptor (UniProt P48546); assay: proximity ligation; proteins coexpressed in Sf21 cell-free lysate; vesicular fraction in sucrose on IBIDI µ-slides; Duolink in situ Red kit Mouse/Rabbit with primary antibodies to BR1, BR2 or His-tag; confocal laser scanning microscopy
[3] = molecular target: glucagon-like peptide 1 receptor (UniProt P43220); assay: as above
[4] = molecular target: nicotinic acetylcholine receptor subunit delta (UniProt Q07001); assay: as above

Measured: binding

B1: GABAB subunit 2 fused with a fluorescent mCitrine (receptor, UniProt O75899 42-941)
chain: WARGAPRPPPSSPPLSIMGLMPLTKEVAKGSIGRGVLPAVELAIEQIRNESLLRPYFLDLRLYDTECDNAKGLKAFYDAIKYGPNHLMVFGGVCPSVTSIIAESLQGWNLVQLSFAATTPVLADKKKYPYFFRTVPSDNAVNPAILKLLKHYQWKRVGTLTQDVQRFSEVRNDLTGVLYGEDIEISDTESFSNDPCTSVKKLKGNDVRIILGQFDQNMAAKVFCCAYEENMYGSKYQWIIPGWYEPSWWEQVHTEANSSRCLRKNLLAAMEGYIGVDFEPLSSKQIKTISGKTPQQYEREYNNKRSGVGPSKFHGYAYDGIWVIAKTLQRAMETLHASSRHQRIQDFNYTDHTLGRIILNAMNETNFFGVTGQVVFRNGERMGTIKFTQFQDSREVKVGEYNAVADTLEIINDTIRFQGSEPPKDKTIILEQLRKISLPLYSILSALTILGMIMASAFLFFNIKNRNQKLIKMSSPYMNNLIILGGMLSYASIFLFGLDGSFVSEKTFETLCTVRTWILTVGYTTAFGAMFAKTWRVHAIFKNVKMKKKIIKDQKLLVIVGGMLLIDLCILICWQAVDPLRRTVEKYSMEPDPAGRDISIRPLLEHCENTHMTIWLGIVYAYKGLLMLFGCFLAWETRNVSIPALNDSKYIGMSVYNVGIMCIIGAAVSFLTRDQPNVQFCIVALVIIFCSTITLCLVFVPKLITLRTNPDAATQNRRFQFTQNQKKEDSKTSTSVTSVNQASTSRLEGLQSENHRLRMKITELDKDLEEVTMQLQDTPEKTTYIKQNHYQELNDILNLGNFTESTDGGKAILKNHLDQNPQLQWNTTEPSRTCKDPIEDINSPEHIQRRLSLQLPILHHAYLPSIGGVDASCVSPCVSPTASPRHRHVPPSFRVMVSGL
no binding: all assays above
